Laboratory results taken from US20090202429A1.
Results are given in words; binding and its absence hold for the method and conditions named. Some results given as binding are weak or reduced against the parent protein; the word gives no strength.

Amino acid sequences for entries named in this document (tags omitted). A change or cut given only in a name is not applied to a line headed by its entry. Residues count along the entry.
UniProt O35930, residues 17-734: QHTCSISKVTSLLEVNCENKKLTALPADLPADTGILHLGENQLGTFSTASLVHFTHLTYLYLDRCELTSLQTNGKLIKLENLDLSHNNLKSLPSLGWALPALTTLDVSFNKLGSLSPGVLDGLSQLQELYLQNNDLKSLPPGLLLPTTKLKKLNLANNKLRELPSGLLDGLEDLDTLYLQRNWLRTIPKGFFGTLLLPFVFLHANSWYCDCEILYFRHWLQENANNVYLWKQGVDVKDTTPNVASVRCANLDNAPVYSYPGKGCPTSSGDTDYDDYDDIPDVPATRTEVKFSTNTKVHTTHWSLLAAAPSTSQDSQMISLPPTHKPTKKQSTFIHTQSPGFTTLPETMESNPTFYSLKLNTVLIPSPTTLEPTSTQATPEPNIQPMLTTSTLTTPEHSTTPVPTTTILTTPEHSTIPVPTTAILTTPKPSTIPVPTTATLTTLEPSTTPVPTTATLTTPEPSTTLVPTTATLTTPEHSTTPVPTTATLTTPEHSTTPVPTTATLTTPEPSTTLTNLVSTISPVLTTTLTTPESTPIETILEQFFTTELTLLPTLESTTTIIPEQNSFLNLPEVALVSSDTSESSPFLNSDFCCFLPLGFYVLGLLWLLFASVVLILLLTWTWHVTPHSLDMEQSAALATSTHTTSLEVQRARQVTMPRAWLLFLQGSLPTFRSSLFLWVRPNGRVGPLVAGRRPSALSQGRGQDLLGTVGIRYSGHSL
UniProt Q8CIZ8: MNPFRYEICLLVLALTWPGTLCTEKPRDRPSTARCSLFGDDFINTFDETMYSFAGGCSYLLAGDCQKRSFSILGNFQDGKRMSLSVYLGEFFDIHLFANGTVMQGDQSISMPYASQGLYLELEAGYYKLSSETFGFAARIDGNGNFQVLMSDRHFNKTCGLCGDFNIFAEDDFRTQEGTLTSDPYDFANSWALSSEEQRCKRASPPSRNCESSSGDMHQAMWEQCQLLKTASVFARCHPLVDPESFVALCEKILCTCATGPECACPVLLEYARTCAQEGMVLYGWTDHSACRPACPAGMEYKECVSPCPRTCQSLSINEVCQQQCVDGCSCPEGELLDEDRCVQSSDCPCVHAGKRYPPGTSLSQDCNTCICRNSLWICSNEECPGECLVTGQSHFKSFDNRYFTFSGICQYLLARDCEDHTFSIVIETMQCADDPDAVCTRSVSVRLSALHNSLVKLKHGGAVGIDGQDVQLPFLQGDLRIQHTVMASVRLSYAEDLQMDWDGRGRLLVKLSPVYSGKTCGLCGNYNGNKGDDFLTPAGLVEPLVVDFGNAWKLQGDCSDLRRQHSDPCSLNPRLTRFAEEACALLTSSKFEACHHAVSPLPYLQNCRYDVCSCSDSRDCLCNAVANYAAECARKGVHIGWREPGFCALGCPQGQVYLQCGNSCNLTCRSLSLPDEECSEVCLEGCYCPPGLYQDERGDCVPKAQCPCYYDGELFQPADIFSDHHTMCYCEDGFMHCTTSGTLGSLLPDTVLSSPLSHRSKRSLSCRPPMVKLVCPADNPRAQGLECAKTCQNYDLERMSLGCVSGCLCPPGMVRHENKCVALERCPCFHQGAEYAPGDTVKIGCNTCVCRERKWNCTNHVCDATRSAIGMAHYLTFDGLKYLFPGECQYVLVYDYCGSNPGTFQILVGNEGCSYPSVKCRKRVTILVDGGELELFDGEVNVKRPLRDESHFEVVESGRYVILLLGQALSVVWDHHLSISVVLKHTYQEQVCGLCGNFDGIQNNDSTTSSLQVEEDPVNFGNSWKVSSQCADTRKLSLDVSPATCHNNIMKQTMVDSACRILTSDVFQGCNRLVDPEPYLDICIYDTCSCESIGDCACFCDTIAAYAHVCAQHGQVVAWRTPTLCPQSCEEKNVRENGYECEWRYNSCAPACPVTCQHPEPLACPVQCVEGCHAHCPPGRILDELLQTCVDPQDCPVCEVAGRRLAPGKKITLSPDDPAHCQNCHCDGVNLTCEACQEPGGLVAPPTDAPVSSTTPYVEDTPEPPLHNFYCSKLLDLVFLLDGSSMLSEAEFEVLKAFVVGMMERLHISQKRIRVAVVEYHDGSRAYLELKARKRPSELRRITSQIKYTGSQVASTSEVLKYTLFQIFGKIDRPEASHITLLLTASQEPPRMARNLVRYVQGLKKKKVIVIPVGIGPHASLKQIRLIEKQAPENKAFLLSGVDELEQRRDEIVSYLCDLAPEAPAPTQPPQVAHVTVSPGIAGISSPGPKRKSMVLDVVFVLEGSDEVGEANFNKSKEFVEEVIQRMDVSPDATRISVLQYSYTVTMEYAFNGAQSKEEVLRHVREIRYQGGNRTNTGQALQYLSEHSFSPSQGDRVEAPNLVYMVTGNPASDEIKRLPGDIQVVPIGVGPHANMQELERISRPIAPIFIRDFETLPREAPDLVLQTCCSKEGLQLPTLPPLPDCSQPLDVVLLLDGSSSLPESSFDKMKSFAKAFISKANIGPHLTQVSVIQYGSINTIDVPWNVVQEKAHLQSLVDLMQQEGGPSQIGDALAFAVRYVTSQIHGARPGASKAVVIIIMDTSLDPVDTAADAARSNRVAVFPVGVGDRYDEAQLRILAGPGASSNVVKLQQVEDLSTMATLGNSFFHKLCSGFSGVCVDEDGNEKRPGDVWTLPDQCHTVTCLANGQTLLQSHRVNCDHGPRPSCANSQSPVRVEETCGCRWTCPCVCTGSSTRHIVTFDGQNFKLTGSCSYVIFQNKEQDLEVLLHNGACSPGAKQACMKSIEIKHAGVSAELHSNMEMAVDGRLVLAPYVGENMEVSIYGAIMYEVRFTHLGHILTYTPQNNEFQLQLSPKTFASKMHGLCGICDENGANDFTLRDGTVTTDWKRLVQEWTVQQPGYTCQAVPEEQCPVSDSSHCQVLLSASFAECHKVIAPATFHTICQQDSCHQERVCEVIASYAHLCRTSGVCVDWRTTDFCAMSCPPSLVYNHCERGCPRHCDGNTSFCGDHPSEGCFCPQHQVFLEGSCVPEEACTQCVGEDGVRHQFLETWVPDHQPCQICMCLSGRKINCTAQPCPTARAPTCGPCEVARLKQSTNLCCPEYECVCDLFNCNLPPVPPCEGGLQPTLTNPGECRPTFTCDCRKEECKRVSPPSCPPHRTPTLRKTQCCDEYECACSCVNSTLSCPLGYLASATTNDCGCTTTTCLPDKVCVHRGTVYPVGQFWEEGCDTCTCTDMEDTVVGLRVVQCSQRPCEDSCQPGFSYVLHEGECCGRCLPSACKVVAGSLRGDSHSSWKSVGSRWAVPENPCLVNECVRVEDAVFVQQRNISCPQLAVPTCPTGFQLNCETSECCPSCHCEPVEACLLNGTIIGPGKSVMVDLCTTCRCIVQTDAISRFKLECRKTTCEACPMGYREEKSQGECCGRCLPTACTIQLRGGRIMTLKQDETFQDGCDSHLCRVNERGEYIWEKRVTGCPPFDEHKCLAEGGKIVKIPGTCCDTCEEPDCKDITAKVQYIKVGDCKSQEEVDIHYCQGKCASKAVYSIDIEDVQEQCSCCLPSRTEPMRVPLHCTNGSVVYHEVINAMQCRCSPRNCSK

Legend:
[1] = molecular target: murine platelet glycoprotein Ib alpha (GPIb alpha), on mouse platelets (mouse) (UniProt O35930); experiment: platelet adhesion to surface-immobilized plasma VWF in flow, 1600 s^-1
[2] = molecular target: murine platelet glycoprotein Ib alpha (GPIb alpha), on mouse platelets (mouse) (UniProt O35930); experiment: panel B: murine platelets on surface-immobilized plasma VWF in flow, 1600 s-1
[3] = molecular target: murine platelet glycoprotein Ib alpha (GPIb alpha), on mouse platelets (mouse) (UniProt O35930); experiment: mouse whole blood perfused 4 min over surface-immobilized plasma VWF, 1600 s-1

Measured: binding

murine plasma VWF, wild type (from UniProt Q8CIZ8 764-2813) (ligand)
binds: all assays above
